Measured values taken from the supplement of paper PMC10849652.
Some of the results follow.

The chains behind the UniProt entries cited, without tags or fusion partners. Where a name states a change or a piece, a line headed by the entry shows the natural chain unless it says otherwise.
UniProt Q03014: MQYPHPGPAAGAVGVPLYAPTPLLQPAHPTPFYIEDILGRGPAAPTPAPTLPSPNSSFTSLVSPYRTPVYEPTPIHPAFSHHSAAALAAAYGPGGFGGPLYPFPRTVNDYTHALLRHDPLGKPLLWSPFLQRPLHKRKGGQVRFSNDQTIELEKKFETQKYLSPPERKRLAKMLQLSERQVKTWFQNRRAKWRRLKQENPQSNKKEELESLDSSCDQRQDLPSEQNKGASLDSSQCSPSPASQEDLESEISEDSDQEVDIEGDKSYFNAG
UniProt P00492: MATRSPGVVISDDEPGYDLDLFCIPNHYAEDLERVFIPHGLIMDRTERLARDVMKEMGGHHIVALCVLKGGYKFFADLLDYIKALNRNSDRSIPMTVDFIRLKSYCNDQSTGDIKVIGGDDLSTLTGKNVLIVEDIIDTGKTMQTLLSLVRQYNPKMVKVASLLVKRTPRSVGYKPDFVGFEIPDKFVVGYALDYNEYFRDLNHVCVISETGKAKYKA
UniProt Q00839, whole entry, looked up: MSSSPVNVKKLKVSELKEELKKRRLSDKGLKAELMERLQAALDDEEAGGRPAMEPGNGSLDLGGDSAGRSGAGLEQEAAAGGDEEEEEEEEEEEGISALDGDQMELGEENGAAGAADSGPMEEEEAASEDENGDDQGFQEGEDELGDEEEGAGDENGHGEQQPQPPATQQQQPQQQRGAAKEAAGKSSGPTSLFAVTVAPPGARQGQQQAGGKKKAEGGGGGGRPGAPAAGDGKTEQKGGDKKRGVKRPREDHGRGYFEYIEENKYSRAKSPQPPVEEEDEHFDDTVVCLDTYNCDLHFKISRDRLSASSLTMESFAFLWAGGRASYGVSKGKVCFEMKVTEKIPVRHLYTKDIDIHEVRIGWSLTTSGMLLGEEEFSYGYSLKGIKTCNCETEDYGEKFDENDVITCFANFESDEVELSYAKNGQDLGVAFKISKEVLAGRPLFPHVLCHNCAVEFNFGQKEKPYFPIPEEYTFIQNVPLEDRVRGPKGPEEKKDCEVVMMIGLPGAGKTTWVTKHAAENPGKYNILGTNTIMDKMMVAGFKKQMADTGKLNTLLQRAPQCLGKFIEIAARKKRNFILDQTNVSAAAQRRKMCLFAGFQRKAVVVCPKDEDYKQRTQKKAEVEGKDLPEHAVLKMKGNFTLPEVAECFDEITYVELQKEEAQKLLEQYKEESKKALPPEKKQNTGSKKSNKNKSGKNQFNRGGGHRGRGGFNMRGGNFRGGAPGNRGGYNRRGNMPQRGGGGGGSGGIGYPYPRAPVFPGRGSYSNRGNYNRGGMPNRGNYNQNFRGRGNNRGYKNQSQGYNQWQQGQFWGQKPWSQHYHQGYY
UniProt Q13151: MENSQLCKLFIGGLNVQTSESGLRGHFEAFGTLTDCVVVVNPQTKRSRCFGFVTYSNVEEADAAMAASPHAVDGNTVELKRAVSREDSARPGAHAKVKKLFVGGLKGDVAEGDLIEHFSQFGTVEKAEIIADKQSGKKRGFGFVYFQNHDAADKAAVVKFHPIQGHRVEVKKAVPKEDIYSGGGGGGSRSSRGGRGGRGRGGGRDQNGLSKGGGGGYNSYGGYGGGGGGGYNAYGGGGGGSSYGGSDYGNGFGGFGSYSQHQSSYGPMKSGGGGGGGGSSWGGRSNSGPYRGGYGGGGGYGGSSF
UniProt Q8TDG4: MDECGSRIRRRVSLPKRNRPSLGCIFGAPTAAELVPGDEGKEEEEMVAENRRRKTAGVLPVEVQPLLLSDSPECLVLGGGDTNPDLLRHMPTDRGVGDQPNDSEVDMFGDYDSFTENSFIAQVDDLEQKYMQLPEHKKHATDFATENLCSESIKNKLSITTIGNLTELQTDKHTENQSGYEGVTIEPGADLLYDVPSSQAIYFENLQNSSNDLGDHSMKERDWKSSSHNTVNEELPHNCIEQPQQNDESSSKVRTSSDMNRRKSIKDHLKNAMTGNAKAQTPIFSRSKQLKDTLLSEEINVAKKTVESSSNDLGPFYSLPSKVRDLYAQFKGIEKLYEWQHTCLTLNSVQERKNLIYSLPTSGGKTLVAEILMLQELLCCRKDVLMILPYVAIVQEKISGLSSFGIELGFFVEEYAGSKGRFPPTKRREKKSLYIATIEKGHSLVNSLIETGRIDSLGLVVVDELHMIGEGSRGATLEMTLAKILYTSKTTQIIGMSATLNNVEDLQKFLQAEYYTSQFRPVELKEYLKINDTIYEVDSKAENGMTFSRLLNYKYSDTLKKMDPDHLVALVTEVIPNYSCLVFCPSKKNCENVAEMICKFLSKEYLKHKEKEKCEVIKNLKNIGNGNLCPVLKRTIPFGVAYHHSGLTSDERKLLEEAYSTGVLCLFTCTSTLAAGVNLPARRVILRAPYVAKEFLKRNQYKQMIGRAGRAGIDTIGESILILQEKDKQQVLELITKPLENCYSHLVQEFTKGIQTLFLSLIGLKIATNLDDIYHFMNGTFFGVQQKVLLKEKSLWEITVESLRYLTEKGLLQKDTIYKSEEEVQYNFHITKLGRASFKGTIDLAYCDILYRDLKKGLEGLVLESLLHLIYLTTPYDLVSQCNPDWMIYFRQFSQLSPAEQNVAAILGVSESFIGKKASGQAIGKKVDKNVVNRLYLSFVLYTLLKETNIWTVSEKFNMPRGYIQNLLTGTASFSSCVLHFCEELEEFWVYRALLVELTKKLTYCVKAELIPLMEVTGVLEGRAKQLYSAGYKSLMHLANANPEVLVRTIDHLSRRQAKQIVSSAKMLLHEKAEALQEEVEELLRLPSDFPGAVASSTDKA
UniProt Q86YM7: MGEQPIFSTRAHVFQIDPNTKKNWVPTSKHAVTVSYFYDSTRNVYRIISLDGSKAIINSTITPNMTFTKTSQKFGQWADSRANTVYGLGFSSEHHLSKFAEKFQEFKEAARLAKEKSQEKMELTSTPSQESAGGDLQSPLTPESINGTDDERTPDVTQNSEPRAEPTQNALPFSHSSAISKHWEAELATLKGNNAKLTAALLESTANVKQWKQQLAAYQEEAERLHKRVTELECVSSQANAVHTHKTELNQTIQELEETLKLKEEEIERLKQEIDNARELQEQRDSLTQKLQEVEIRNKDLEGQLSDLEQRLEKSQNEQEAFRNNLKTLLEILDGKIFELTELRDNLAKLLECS
UniProt O75506: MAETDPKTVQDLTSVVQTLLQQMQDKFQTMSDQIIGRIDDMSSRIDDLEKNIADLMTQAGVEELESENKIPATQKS
UniProt Q96FZ2: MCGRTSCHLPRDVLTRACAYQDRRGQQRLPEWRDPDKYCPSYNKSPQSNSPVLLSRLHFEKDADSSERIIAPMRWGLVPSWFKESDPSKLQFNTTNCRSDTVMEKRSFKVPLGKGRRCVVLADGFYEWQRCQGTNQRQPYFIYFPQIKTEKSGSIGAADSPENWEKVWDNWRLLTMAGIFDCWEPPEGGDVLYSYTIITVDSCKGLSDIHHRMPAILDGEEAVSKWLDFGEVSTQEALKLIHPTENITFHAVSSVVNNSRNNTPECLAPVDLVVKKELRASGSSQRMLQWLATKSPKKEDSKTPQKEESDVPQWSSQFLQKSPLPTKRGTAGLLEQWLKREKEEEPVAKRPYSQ
UniProt Q9NRV9: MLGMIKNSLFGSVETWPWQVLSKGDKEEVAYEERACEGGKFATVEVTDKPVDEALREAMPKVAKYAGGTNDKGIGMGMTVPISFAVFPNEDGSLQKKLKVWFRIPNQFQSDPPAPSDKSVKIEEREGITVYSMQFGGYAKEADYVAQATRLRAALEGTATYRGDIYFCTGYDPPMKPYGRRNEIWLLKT
UniProt P42694: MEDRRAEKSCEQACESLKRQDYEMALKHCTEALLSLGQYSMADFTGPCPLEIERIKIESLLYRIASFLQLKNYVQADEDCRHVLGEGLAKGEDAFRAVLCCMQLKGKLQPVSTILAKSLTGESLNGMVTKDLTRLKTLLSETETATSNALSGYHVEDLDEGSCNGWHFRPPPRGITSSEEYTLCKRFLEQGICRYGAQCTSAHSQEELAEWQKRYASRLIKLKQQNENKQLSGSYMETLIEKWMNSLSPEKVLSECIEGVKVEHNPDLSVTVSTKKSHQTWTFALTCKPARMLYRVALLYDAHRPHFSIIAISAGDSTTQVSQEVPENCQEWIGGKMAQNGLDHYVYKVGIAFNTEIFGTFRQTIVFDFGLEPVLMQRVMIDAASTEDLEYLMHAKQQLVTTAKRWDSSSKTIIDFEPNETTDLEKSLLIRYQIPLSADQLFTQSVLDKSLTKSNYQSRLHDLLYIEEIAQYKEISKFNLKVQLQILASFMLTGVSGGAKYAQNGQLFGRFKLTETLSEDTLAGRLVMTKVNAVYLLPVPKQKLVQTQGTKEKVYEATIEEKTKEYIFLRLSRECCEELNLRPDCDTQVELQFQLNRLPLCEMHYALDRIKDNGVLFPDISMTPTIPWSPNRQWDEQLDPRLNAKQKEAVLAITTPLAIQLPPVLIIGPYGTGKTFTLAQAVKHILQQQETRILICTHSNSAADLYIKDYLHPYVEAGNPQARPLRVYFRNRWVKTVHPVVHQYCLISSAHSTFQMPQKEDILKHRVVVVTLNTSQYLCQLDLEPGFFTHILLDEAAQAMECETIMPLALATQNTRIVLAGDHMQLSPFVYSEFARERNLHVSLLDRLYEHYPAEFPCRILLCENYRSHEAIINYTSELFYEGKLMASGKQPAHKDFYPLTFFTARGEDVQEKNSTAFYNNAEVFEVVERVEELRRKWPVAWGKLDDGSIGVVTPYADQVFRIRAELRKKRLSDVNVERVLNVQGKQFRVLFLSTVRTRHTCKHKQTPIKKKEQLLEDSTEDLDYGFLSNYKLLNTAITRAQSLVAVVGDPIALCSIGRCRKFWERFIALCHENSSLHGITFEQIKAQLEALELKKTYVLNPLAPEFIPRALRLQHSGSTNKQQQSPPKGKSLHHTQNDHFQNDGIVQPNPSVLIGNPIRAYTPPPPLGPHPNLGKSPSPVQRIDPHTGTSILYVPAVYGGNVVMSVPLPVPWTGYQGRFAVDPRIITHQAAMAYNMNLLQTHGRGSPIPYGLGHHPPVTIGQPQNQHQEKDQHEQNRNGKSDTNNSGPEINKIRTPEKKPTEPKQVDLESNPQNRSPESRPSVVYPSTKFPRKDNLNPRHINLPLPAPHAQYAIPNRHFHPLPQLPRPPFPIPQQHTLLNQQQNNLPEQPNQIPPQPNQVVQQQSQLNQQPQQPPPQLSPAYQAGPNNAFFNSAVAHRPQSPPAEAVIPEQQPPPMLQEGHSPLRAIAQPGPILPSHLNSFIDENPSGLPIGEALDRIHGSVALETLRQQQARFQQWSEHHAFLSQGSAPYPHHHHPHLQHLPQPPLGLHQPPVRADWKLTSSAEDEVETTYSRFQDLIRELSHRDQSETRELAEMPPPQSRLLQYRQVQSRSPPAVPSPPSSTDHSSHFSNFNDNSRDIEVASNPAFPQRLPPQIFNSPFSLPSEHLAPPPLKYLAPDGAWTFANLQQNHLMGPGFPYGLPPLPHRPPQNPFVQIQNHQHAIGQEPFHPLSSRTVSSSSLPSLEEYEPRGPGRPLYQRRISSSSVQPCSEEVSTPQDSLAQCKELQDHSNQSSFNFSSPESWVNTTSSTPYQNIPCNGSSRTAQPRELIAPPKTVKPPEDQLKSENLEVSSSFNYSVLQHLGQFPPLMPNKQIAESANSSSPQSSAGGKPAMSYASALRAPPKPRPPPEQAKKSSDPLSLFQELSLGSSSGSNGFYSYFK
UniProt O43390: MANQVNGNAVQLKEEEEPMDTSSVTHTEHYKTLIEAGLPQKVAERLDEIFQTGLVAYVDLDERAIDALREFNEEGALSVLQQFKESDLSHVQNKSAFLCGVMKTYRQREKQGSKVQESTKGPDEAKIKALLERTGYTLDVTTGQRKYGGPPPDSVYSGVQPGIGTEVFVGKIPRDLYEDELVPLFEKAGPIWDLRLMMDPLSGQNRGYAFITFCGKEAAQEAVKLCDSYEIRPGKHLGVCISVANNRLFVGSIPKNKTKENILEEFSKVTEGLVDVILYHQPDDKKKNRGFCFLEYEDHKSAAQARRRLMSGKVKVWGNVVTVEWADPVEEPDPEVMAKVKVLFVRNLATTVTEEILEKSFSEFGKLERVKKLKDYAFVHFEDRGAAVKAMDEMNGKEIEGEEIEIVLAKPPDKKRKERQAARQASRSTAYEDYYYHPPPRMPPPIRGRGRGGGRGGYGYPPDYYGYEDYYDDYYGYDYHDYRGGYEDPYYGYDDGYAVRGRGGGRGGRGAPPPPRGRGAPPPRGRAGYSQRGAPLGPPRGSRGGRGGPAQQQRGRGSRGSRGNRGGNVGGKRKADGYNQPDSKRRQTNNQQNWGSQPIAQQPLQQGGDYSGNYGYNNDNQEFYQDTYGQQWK
UniProt Q99714: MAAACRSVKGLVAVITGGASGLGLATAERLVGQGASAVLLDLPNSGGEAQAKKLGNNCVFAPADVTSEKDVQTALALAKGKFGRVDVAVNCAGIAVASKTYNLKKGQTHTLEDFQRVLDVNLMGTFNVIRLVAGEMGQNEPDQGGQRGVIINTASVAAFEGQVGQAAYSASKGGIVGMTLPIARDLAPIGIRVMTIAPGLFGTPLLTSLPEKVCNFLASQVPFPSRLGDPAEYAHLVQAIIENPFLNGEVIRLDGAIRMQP

Experiments:
Assay in all cases: log2 fold change, soluble protein after heating vs DMSO (PISA); higher = thermal stabilisation; K562 lysate, 10 uM; active = over 0.2 and 3.5 SD of the protein, either way, in both replicates (recomputed)
[1] = compound: C#Cc1cccc(Nc2ncnc3cc(OCCOC)c(OCCOC)cc23)c1 [erlotinib]
How it was run: (§1)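 Following dounce homogenisation of K562 pellets in PBS pH 7.4 with 1 mM MgCl2, crude extract at 1 mg/mL protein was incubated for 30 min with 10 μM compound. Aliquots were then heated for 3 min over 48°C-58°C and pooled, NP-40 was added to 0.5% at 4°C, and soluble protein was recovered as the supernatant at 21,000xg for 90 min. Channel-sum-equalised TMTpro 16plex LC-MS/MS quantified this protein. Each value, from duplicates, is a log-two fold change in thermal stability relative to solvent controls.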

[2] = compound: C/C(=N\NC(=O)C1=CC(=CC=C1)S(=O)(=O)N2CCOCC2)/C3=C(C=CC(=C3)Cl)O
How it was run: as §1

[3] = compound: C1=CC(=CC=C1C2=NC3=C(N2)C=C(C=C3)C(=O)N)OC4=CC=C(C=C4)Cl
How it was run: as §1

[4] = compound: C1=CC2=C(C=CC(=C2)/C=C\3/C(=O)NC(=NCC4=CC=CS4)S3)N=C1
How it was run: as §1

[5] = compound: C1=CC2=NC=CN=C2C=C1/C=C/3\C(=O)NC(=O)S3
How it was run: as §1

[6] = compound: C1=CC=C(C=C1)C2=NC(=C(N2)C3=CC=NC=C3)C4=CC(=C(C=C4)Cl)O
How it was run: as §1

[7] = compound: C1=CC=C2C(=C1)C3=NNC4=CC=CC(=C43)C2=O
How it was run: as §1

[8] = compound: C1CCN(C1)C(=O)NC2=CC=CC(=C2)NC3=NC=C(C(=N3)NCCC4=CN=CN4)Br
How it was run: as §1

[9] = compound: C1CN(CCC1(CC2=CC=C(C=C2)Cl)N)C3=NC=NC4=C3C=CN4
How it was run: as §1

[10] = compound: C1COCCN1CCN2C3=CC=CC=C3N=C2NC(=O)C4=CC(=CC=C4)[N+](=O)[O-] [IRAK-1-4 Inhibitor I]
How it was run: as §1

Measured: log2 fold change

HSPA14 (UniProt Q0VDF9)
inactive: [1] 0.014 | [2] 0.025 | [3] -0.009 | [4] 0.009 | [5] 0.012 | [6] 0.049 | [7] -0.035 | [8] 0.018 | [9] 0.014 | [10] 0.003

HHEX (UniProt Q03014)
inactive: [1] -0.04 | [2] 0.081 | [3] 0.036 | [4] -0.131 | [5] -0.045 | [6] -0.1 | [7] 0.142 | [8] -0.024 | [9] -0.074 | [10] 0.092

HSPA2 (UniProt P54652)
inactive: [1] -0.025 | [2] 0.112 | [3] 0.09 | [4] -0.037 | [5] -0.017 | [6] 0.012 | [7] -0.117 | [8] 0.022 | [9] 0.138 | [10] 0.052

HGS (UniProt O14964)
inactive: [1] 0.016 | [2] -0.004 | [3] 0.022 | [4] -0.034 | [5] -0.009 | [6] -0.006 | [7] -0.018 | [8] -0.019 | [9] 0.006 | [10] -0.001

HPRT1 (UniProt P00492)
inactive: [1] -0.038 | [2] -0.096 | [3] -0.003 | [4] -0.022 | [5] -0.012 | [6] -0.014 | [7] -0.032 | [8] 0.002 | [9] -0.006 | [10] -0.016

HNRNPA3 (UniProt P51991)
inactive: [1] 0.009 | [2] 0.013 | [3] -0.078 | [4] -0.002 | [5] 0.02 | [6] 0.036 | [7] 0.041 | [8] 0.077 | [9] 0 | [10] -0.021

HSD17B7 (UniProt P56937)
inactive: [1] 0.006 | [2] -0.1 | [3] 0.112 | [4] 0.047 | [5] 0.013 | [6] -0.011 | [7] 0.064 | [8] -0.04 | [9] -0.151 | [10] 0.009

HIST2H2BF isoform 2 (UniProt Q5QNW6)
inactive: [1] -0.015 | [2] 0.07 | [3] -0.005 | [4] -0.057 | [5] -0.001 | [6] 0.022 | [7] 0.02 | [8] 0.069 | [9] -0.012 | [10] -0.048

HOMEZ isoform 3 (UniProt Q8IX15)
inactive: [1] 0.024 | [2] -0.332 | [3] 0.081 | [4] -0.015 | [5] -0.081 | [6] 0.071 | [7] -0.018 | [8] 0.025 | [9] 0.074 | [10] -0.031

HMGN4 (UniProt O00479)
inactive: [1] 0.015 | [2] 0.238 | [3] 0.063 | [4] -0.056 | [5] 0.017 | [6] 0.048 | [7] 0.293 | [8] 0.201 | [9] -0.044 | [10] -0.046

HNRNPU (UniProt Q00839)
inactive: [1] -0.007 | [2] 0.013 | [3] -0.036 | [4] -0.001 | [5] -0.021 | [6] 0.018 | [7] 0.043 | [8] 0.02 | [9] 0 | [10] -0.037

HSP90AB1 (UniProt P08238)
inactive: [1] -0.002 | [2] -0.014 | [3] 0.014 | [4] 0.004 | [5] -0.021 | [6] 0.005 | [7] 0.065 | [8] 0.003 | [9] -0.003 | [10] -0.015

HNRNPA0 (UniProt Q13151)
inactive: [1] 0.017 | [2] 0.186 | [3] -0.06 | [4] -0.072 | [5] 0.036 | [6] -0.011 | [7] 0.074 | [8] 0.066 | [9] 0.088 | [10] -0.011

HNRNPM (UniProt P52272)
inactive: [1] -0.015 | [2] -0.046 | [3] 0.004 | [4] -0.022 | [5] 0.051 | [6] -0.036 | [7] -0.039 | [8] -0.022 | [9] -0.003 | [10] 0.005

HPS4 isoform 4 (UniProt Q9NQG7)
inactive: [1] 0.03 | [2] -0.02 | [3] -0.014 | [4] -0.033 | [5] -0.226 | [6] -0.044 | [7] -0.069 | [8] -0.042 | [9] 0.093 | [10] -0.038

HELQ (UniProt Q8TDG4)
inactive: [1] -0.029 | [2] -0.023 | [3] 0.044 | [4] 0.07 | [5] 0.019 | [6] 0.004 | [7] 0.077 | [8] 0.056 | [9] 0.064 | [10] -0.033

HSP90AA4P (UniProt Q58FG1)
inactive: [1] -0.064 | [2] 0.994 | [3] 0.097 | [4] 0.018 | [5] -0.129 | [6] 0.023 | [7] -0.003 | [8] -0.032 | [9] -0.09 | [10] 0.081

Reprinted at random: 2 records from the list.
HNRNPM (UniProt P52272)
inactive: [1] -0.015 | [2] -0.046 | [3] 0.004 | [4] -0.022 | [5] 0.051 | [6] -0.036 | [7] -0.039 | [8] -0.022 | [9] -0.003 | [10] 0.005

HMGN4 (UniProt O00479)
inactive: [1] 0.015 | [2] 0.238 | [3] 0.063 | [4] -0.056 | [5] 0.017 | [6] 0.048 | [7] 0.293 | [8] 0.201 | [9] -0.044 | [10] -0.046

Next results:

HOMER1 (UniProt Q86YM7)
inactive: [1] -0.018 | [2] 0 | [3] 0.015 | [4] 0.016 | [5] 0.037 | [6] 0.001 | [7] 0.001 | [8] 0.086 | [9] 0.082 | [10] 0.036

HEATR6 (UniProt Q6AI08)
inactive: [1] -0.033 | [2] 0.024 | [3] -0.002 | [4] 0.022 | [5] 0.085 | [6] -0.006 | [7] -0.026 | [8] -0.03 | [9] -0.007 | [10] -0.028

HSPA6 (UniProt P17066)
inactive: [1] -0.005 | [2] -0.002 | [3] 0.018 | [4] -0.002 | [5] -0.013 | [6] -0.022 | [7] 0.005 | [8] -0.004 | [9] 0.008 | [10] -0.023

HSBP1 (UniProt O75506)
inactive: [1] 0.009 | [2] -0.167 | [3] 0.123 | [4] 0.041 | [5] -0.07 | [6] -0.181 | [7] -0.329 | [8] 0.051 | [9] -0.095 | [10] -0.227

HMCES (UniProt Q96FZ2)
inactive: [1] 0.049 | [2] -0.035 | [3] 0.099 | [4] 0.067 | [5] -0.045 | [6] 0.014 | [7] -0.062 | [8] -0.051 | [9] -0.012 | [10] 0

HEBP1 (UniProt Q9NRV9)
inactive: [1] -0.026 | [2] -0.143 | [3] 0.043 | [4] 0.035 | [5] -0.003 | [6] 0.018 | [7] 0.151 | [8] 0.013 | [9] 0.018 | [10] 0.164

HELZ (UniProt P42694)
inactive: [1] 0.044 | [2] 0.012 | [3] 0.026 | [4] -0.006 | [5] 0.014 | [6] -0.057 | [7] -0.064 | [8] -0.007 | [9] 0.056 | [10] 0.02

HIST2H2BC (UniProt Q6DN03)
inactive: [1] -0.036 | [2] 0.144 | [3] 0.001 | [4] 0.006 | [5] 0.061 | [6] 0.007 | [7] -0.012 | [8] 0.043 | [9] 0.04 | [10] -0.028

HNRNPR isoform 2 (UniProt O43390)
inactive: [1] 0.004 | [2] 0.023 | [3] -0.002 | [4] -0.004 | [5] -0.003 | [6] 0.009 | [7] 0.022 | [8] 0.007 | [9] -0.003 | [10] -0.015

HSD17B10 (UniProt Q99714)
inactive: [1] 0.018 | [2] -0.044 | [3] 0.035 | [4] -0.023 | [5] 0.01 | [6] 0.016 | [7] -0.054 | [8] -0.03 | [9] 0.054 | [10] 0.012
